Literature values as cited in patent US7560120B2, “Vehicles for delivery of biologically active substances” (University of Tennessee Research Foundation, priority 2002, dated 2009).
In brackets after ≈: the same amount, converted by molar mass. At least one structure is not confirmed: it was looked up by name or label, or the drawing left a doubt.

Conditions: previously determined

## CN(C)[C@@H]1C(O)=C(C(N)=O)C(=O)[C@@]2(O)C(O)=C3C(=O)c4c(O)cccc4[C@@](C)(O)[C@H]3[C@H](O)[C@@H]12 [OTC, oxytetracycline]
  minimum inhibitory concentration: 0.5 µg/mL (≈ 1.09 µM)
